Record: PubChem BioAssay AID504744 (Drosophila RNAi Screening Center, 2011)
Purpose: 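Uncover factors, including feedback loops, that control dAkt activation in fly cells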 (primary screen). System: Drosophila Kc167 cells. Reagents: long dsRNA against Drosophila genes, 250 ng dsRNA per well of a 384-well plate. Time to read-out: 3 days of knock-down, then overnight serum-free starvation before stimulation. Treatment: bovine insulin at 387 nM for 10 minutes after 12 h without serum. Detection: 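Per-well phospho-dAkt level from an in-cell fluorescent antibody stain, divided by a DNA-dye signal; log2 residuals turned into z-scores that take cell number into account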. Call rule: 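Hit in the insulin screen when the two-replicate mean z-score is more extreme than plus or minus 2.5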.
The deposit covers about 23,000 reagents; shown is a random part of those with a known target gene and a result. Over the whole deposit, 98 (0.43%) are marked active. 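Only hit calls are given; the phospho-dAkt signals, z-scores and hit direction were not deposited.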 A plus sign joins genes that one reagent is predicted to hit. No sequences are given here.

no.	target	amplicon	call
1	MSBP	DRSC20146	inactive
2	btsz	DRSC14982	inactive
3	btsz	DRSC16231	inactive
4	CG14852	DRSC14976	inactive
5	CG12490	DRSC04123	inactive
6	Slip1	DRSC17146	inactive
7	Or65b	DRSC08809	inactive
8	sun	DRSC20140	inactive
9	TkR99D	DRSC16881	inactive
10	CG18789	DRSC02696	inactive
11	CG42820 + CG42819	DRSC02264	inactive
12	CG42820 + CG42819	DRSC02265	inactive
13	mAChR-B	DRSC16345	inactive
14	papi	DRSC00693	inactive
15	E(spl)m6-BFM	DRSC16993	inactive
16	Lim1	DRSC17752	inactive
17	Lim1	DRSC18677	inactive
18	Fer3HCH	DRSC19892	inactive
19	Rph	DRSC17790	inactive
20	l(2)10685	DRSC00665	inactive
21	milt	DRSC00965	inactive
22	milt	DRSC00966	inactive
23	milt	DRSC02281	inactive
24	TfIIA-L	DRSC16882	inactive
25	NimC1	DRSC01879	inactive
26	CG33170	DRSC11854	inactive
27	CG33170	DRSC22366	inactive
28	CG10912	DRSC06009	inactive
29	S-Lap3	DRSC10956	inactive
30	CG4390	DRSC15572	inactive
31	Sgf11	DRSC09987	inactive
32	CG6726	DRSC16101	inactive
33	CG13492	DRSC04137	inactive
34	hebe	DRSC05192	inactive
35	hebe	DRSC06605	inactive
36	hebe	DRSC21614	inactive
37	CG5388	DRSC15789	inactive
38	CG5704	DRSC08572	inactive
39	pk	DRSC06178	inactive
40	pk	DRSC07664	inactive
41	pk	DRSC22156	inactive
42	CG14708	DRSC14930	inactive
43	HnRNP-K	DRSC07585	inactive
44	HnRNP-K	DRSC22734	inactive
45	Mtap	DRSC06890	inactive
46	CG9010	DRSC07320	inactive
47	CG14893	DRSC15015	inactive
48	l(1)G0004	DRSC20486	inactive
49	beat-Va	DRSC14192	inactive
50	fzy	DRSC03534	inactive
51	PolH	DRSC11800	inactive
52	Ir92a	DRSC15111	inactive
53	CG1764	DRSC19779	inactive
54	Klf15	DRSC17742	inactive
55	SmydA-8	DRSC18797	inactive
56	SmydA-8	DRSC22064	inactive
57	SmydA-8	DRSC22263	inactive
58	GABPI	DRSC00494	inactive
59	Prx4	DRSC08668	inactive
60	Tm1	DRSC13082	inactive
61	Tm1	DRSC13083	inactive
62	Tm1	DRSC16886	inactive
63	Tbc1d22	DRSC15867	inactive
64	CG7742	DRSC03066	inactive
